Measurements as given in PubChem BioAssay AID200 (DTP/NCI, 2004).
The list shows only some results of the screen, not a fair sample: its compounds were picked by chemical class. Not every dose and run of a compound is shown. T/C is the treated group as % of the vehicle group. Some entries give survivors of the animals treated and no T/C: the source holds a T/C of zero for them, seemingly a mark for toxic or unscored doses. Some doses without a T/C left all or most animals alive at the check, yet need not have been tolerated: the source hardly ever lists a survival T/C far under the control, and the zero likely stands for such cases as well. Survivors were counted at the toxicity check, usually on the fifth day, unless a day is given; later deaths do not show. Schedule codes are those of the source, taken here to give the interval after Q, in days (D) or hours (H), and the number of doses after X. Some doses were run more than once; their values stand side by side, smallest first. For survival time, this PubChem deposit counts one and a half times the control or more as active, and values a quarter to a half above the control carry no call in these data; other NCI protocols may use other cut-offs. Some T/C values are marked as having no survivor count here; that says nothing about deaths at the dose. Some T/C values carry the count of animals alive at the toxicity check (mostly the fifth day); where neither a count nor a note follows, no animal had died by that day.

Test system: B6C3F1 mice, B16 melanoma ip, median survival T/C
Assay: NCI In Vivo Anticancer Drug Screen. Data for tumor model B16 Melanoma (intraperitoneal) in B6C3F1 mice
Conditions: T/C endpoint: median survival time, higher T/C = longer survival
Method: The antitumor activity of compounds was measured in mice bearing transplantable tumors. Survival or tumor size were measured and the results are expressed as the measurement made in the treated group (T) divided by the measurement made in the vehicle treated control group (C). The tumor model used in this assay is B16 Melanoma (intraperitoneal) in B6C3F1 mice

[1] = dose: 400.0 mg/kg/injection, schedule: Q01DX001 (ip), vehicle: water
[2] = dose: 3.12 mg/kg/injection, schedule: Q01DX009 (ip), vehicle: saline with Tween-80
[3] = dose: 6.25 mg/kg/injection, schedule: Q01DX009 (ip), vehicle: Klucel (hydroxypropylcellulose) (HPC)
[4] = dose: 6.25 mg/kg/injection, schedule: Q01DX009 (ip), vehicle: saline with Tween-80
[5] = dose: 12.5 mg/kg/injection, schedule: Q01DX009 (ip), vehicle: Klucel (hydroxypropylcellulose) (HPC)
[6] = dose: 12.5 mg/kg/injection, schedule: Q01DX009 (ip), vehicle: saline with Tween-80
[7] = dose: 25.0 mg/kg/injection, schedule: Q01DX009 (ip), vehicle: Klucel (hydroxypropylcellulose) (HPC)
[8] = dose: 25.0 mg/kg/injection, schedule: Q01DX009 (ip), vehicle: saline with Tween-80
[9] = dose: 50.0 mg/kg/injection, schedule: Q01DX009 (ip), vehicle: Klucel (hydroxypropylcellulose) (HPC)
[10] = dose: 50.0 mg/kg/injection, schedule: Q01DX009 (ip), vehicle: saline with Tween-80
[11] = dose: 100.0 mg/kg/injection, schedule: Q01DX009 (ip), vehicle: Klucel (hydroxypropylcellulose) (HPC)

Compound: CC1=CC(=O)C(N(CCCl)CCCl)=CC1=O
- T/C (dose: 0.37 mg/kg/injection, schedule: Q01DX009 (ip), vehicle: Klucel (hydroxypropylcellulose) (HPC)): 121 % of control
- T/C (dose: 0.75 mg/kg/injection, schedule: Q01DX009 (ip), vehicle: Klucel (hydroxypropylcellulose) (HPC)): 126 % of control
- T/C (dose: 1.5 mg/kg/injection, schedule: Q01DX009 (ip), vehicle: Klucel (hydroxypropylcellulose) (HPC)): 133 % of control
- T/C (dose: 3.0 mg/kg/injection, schedule: Q01DX009 (ip), vehicle: Klucel (hydroxypropylcellulose) (HPC)): 171 % of control

Compound: NC1CCCCC1.NP(=O)(O)N(CCCl)CCCl
- T/C (dose: 25.0 mg/kg/injection, schedule: Q01DX001 (ip), vehicle: water): 109 % of control
- T/C (dose: 50.0 mg/kg/injection, schedule: Q01DX001 (ip), vehicle: water): 118 and 126 % of control
- T/C (dose: 100.0 mg/kg/injection, schedule: Q01DX001 (ip), vehicle: water): 141 and 143 % of control
- T/C (dose: 200.0 mg/kg/injection, schedule: Q01DX001 (ip), vehicle: water): 152 and 161 % of control
- T/C [1]: 173 % of control
- survivor count [1]: 7 of 10 on day 9
- survivor count (dose: 800.0 mg/kg/injection, schedule: Q01DX001 (ip), vehicle: water): 1 of 10 on day 9

Compound: ClCCN(CCCl)c1ccccc1
- T/C (dose: 3.12 mg/kg/injection, schedule: Q01DX009 (ip), vehicle: Klucel (hydroxypropylcellulose) (HPC)): 100 and 117 % of control [9 of 10 alive]
- T/C [2]: 110 % of control
- T/C [3]: 102 and 123 % of control
- T/C [4]: 105 % of control [8 of 10 alive]
- T/C [5]: 117 and 145 % of control
- T/C [6]: 121 % of control
- T/C [7]: 100 and 106 % of control
- T/C [8]: 102 % of control
- survivor count [9]: 10 of 10
- survivor count [10]: 10 of 10
- survivor count [11]: 5 of 10 and 9 of 10
- survivor count (dose: 100.0 mg/kg/injection, schedule: Q01DX009 (ip), vehicle: saline with Tween-80): 5 of 10

Compound: O=NN(CCSCCCl)C(=O)NC1CCCCC1
- T/C [2]: 118 and 141 % of control
- T/C [4]: 142 and 163 % of control
- T/C [6]: 185 and 214 % of control
- T/C [8]: 241 and 245 % of control
- T/C [10]: 288 % of control

Compound: NCCN(CCCl)CCCl
- T/C (dose: 0.13 mg/kg/injection, schedule: Q01DX009 (ip), vehicle: saline): 123 % of control
- T/C (dose: 0.22 mg/kg/injection, schedule: Q01DX009 (ip), vehicle: saline): 139 % of control
- T/C (dose: 0.25 mg/kg/injection, schedule: Q01DX009 (ip), vehicle: saline with Tween-80): 179 % of control
- T/C (dose: 0.36 mg/kg/injection, schedule: Q01DX009 (ip), vehicle: saline): 190 % of control
- T/C (dose: 0.5 mg/kg/injection, schedule: Q01DX009 (ip), vehicle: saline with Tween-80): 235 % of control
- T/C (dose: 0.6 mg/kg/injection, schedule: Q01DX009 (ip), vehicle: saline): 198 % of control
- T/C (dose: 1.0 mg/kg/injection, schedule: Q01DX009 (ip), vehicle: saline with Tween-80): 256 % of control
- T/C (dose: 1.0 mg/kg/injection, schedule: Q01DX009 (ip), vehicle: saline): 289 % of control
- T/C (dose: 1.67 mg/kg/injection, schedule: Q01DX009 (ip), vehicle: saline): 271 % of control

Compound: CCC(=O)N(c1ccccc1)C1CCNCC1
- T/C (dose: 50.0 mg/kg/injection, schedule: Q01DX009 (ip), vehicle: saline): 96 % of control [9 of 10 alive]
- T/C (dose: 100.0 mg/kg/injection, schedule: Q01DX009 (ip), vehicle: saline): 96 % of control
- survivor count (dose: 200.0 mg/kg/injection, schedule: Q01DX009 (ip), vehicle: saline): 4 of 10

Compound: C[N+](CCCl)(CCCl)Cc1ccc([N+](=O)[O-])cc1
- T/C (dose: 1.56 mg/kg/injection, schedule: Q01DX009 (ip), vehicle: saline): 107 % of control [survivor count not shown]
- T/C (dose: 2.5 mg/kg/injection, schedule: Q01DX009 (ip), vehicle: saline): 117 % of control [survivor count not shown]
- T/C (dose: 3.12 mg/kg/injection, schedule: Q01DX009 (ip), vehicle: saline): 115 % of control [survivor count not shown]
- T/C (dose: 5.0 mg/kg/injection, schedule: Q01DX009 (ip), vehicle: saline): 102 % of control [survivor count not shown]
- T/C (dose: 6.25 mg/kg/injection, schedule: Q01DX009 (ip), vehicle: saline): 123 % of control [survivor count not shown]
- T/C (dose: 10.0 mg/kg/injection, schedule: Q01DX009 (ip), vehicle: saline): 117 % of control [survivor count not shown]
- T/C (dose: 12.5 mg/kg/injection, schedule: Q01DX009 (ip), vehicle: saline): 112 % of control [survivor count not shown]

Compound: CCOc1ccc(N(CCCl)CCCl)cc1
- T/C [3]: 152 % of control
- T/C [5]: 167 % of control
- T/C [7]: 183 % of control
- T/C [9]: 183 % of control
- survivor count [11]: 10 of 10

Compound: Cc1ccc(N(CCCl)CCCl)cc1
- T/C [5]: 120 % of control
- T/C [7]: 147 % of control
- T/C [9]: 132 % of control
- T/C [11]: 135 % of control
